Some entries share one result that the patent states for a list of compounds.
Tested on: pancreatic islets
Assay: Glucose-stimulated insulin secretion (GSIS) of isolated islets
Format: cell-based, Sprague-Dawley (SD) rats
Settings: rat islets, 12.0 mM glucose, 10 μg/mL peptide versus 100 nM GLP-1
Protocol: The pancreases were procured from male adult Sprague-Dawley (SD) rats. After 7 days acclimation, the animals were sacrificed by cervical dislocation and the entire pancreas was removed and digested with collagenase to isolate islets. After digestion, islets were maintained at 37° C. in RPMI 1640 (Carlsbad, Calif., USA) pH 7.4, containing 10% (v/v) fetal calf serum, 1% penicillin/streptomycin, and 10 mM glucose in a humid atmosphere (5% CO2/95% O2), without the addition of any compound (control), or with the addition of 100 nM glucagon like peptide-1 (GLP-1); or 10 μg/mL Peptide 1, Peptide 12, or Peptide 16, as summarized in Table 4 below. Cultured islets were rinsed in Krebs-Ringer bicarbonate buffer (KRB), pH 7.4, previously gassed with a mixture CO2/O2 (5/95%), and pre-incubated in 1.0 ml KRB containing 0.5% (w/v) BSA and 1.5 mM glucose at 37° C. for 45 min. After this period, groups of 5 islets were incubated in 0.6 ml KRB with the addition of 1.5 or 12.0 mM glucose, with or without the addition of peptides for 60 min. At the end of the incubation period, aliquots of the medium were collected for insulin quantitation.

With “Ac-IGLHDPSHGTLPAGS-OH [Peptide 12, Ac-IGLHDPSHGTLPAGS-OH]” the “stimulation of insulin secretion relative to GLP-1” value was 2-3 fold.

“Ac-IGLHDPSHGTLPNGS-OH [Peptide 16, Ac-IGLHDPSHGTLPNGS-OH]” was tested, and the “stimulation of insulin secretion relative to GLP-1” value was 2-3 fold.

— patent US10899815B2, “Compositions and methods of using islet neogenesis peptides and analogs thereof” (SHENZHEN HIGHTIDE BIOPHARMACEUTICAL, LTD., priority 2013, dated 2021)
